# Measurements reported in PMC4377584.
# By UniProt entry, the sequences of proteins in these tests, tags left out.
# UniProt Q5VZM2: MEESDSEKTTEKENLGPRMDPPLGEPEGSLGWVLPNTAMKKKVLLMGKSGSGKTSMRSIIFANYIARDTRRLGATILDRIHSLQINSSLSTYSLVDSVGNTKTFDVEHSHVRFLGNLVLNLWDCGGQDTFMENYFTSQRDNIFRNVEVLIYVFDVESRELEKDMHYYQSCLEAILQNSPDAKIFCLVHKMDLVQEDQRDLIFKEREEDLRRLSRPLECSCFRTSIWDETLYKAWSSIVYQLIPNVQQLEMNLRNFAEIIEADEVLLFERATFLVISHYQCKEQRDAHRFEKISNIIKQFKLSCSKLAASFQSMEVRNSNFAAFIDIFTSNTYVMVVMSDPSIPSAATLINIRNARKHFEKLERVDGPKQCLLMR
# No constants are given. Whether binding was seen depends on the method and setting. In cells and extracts the contact can be indirect. Some binding calls cover weakened binding; strength is not graded here. For part of these data: Sequences can lack the tags named with a protein.
# T1: Flag-tagged Sestrin2 (UniProt P58004)
# T1 sequence: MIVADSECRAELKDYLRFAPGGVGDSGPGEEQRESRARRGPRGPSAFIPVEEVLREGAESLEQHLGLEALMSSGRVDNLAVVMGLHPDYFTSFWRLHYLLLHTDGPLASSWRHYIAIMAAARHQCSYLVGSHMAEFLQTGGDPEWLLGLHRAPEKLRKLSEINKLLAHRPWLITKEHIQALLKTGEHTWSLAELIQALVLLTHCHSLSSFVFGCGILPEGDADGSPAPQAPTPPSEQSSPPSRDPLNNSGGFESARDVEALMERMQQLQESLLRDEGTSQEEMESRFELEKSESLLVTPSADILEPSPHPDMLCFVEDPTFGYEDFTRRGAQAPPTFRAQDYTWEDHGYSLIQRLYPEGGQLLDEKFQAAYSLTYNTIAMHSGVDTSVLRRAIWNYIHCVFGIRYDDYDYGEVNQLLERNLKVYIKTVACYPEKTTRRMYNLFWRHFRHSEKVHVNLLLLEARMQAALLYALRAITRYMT
# T2: WDR24 (endogenous, mouse liver) (mouse (endogenous in liver)) (UniProt Q8CFJ9)
# T2 sequence: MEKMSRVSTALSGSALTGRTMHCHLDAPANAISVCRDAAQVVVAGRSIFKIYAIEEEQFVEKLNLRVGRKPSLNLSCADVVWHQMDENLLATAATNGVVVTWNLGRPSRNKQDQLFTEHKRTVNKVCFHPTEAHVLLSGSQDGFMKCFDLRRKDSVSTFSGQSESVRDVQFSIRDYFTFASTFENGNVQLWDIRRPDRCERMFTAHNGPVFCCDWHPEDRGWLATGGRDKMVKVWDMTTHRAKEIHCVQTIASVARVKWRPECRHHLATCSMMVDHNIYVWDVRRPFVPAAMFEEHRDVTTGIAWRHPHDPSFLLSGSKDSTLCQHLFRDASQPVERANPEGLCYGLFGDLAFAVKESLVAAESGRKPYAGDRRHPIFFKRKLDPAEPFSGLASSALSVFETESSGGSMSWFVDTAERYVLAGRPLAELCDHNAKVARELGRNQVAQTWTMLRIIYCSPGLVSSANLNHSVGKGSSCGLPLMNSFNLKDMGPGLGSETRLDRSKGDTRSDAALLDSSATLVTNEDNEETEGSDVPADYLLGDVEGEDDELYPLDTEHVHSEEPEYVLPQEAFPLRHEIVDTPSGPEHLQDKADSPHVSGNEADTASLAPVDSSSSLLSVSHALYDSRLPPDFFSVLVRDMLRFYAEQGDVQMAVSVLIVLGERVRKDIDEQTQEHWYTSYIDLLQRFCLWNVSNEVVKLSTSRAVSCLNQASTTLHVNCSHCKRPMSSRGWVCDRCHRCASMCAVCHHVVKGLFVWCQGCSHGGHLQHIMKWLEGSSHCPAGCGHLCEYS
# T3: Flag-tagged Sestrin2, P58004
# T3 chain: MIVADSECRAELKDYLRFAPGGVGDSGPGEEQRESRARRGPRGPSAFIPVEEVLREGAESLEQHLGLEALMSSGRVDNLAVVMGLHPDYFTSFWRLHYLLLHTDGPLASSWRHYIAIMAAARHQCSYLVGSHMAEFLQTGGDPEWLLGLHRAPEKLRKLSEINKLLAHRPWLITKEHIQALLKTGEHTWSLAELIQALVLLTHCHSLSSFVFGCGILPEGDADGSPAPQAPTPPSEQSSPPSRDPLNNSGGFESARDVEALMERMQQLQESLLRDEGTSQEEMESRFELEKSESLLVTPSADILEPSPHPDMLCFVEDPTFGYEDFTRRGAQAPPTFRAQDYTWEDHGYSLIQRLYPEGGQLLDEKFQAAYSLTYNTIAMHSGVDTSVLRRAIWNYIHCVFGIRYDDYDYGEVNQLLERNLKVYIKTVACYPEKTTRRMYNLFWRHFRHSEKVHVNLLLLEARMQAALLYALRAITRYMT
# Legend:
# Flag-tagged Sestrin2 [1] = target: T1, Flag-tagged Sestrin2; experiment: co-IP; HEK293 cells co-expressing Sestrin2 and one single candidate protein at a time (Fig. S1A); lysis buffer with 0.3% CHAPS
# Flag-tagged Sestrin2 [2] = target: T1, Flag-tagged Sestrin2; experiment: co-IP; HEK293 cells co-transfected with Sestrin2 (or Sestrin1, or truncated Sestrin2) and all GATOR2 components, in Fig. S3D also the GATOR1 components; Sestrin2 IPed (Flag antibody in Fig. 1C); lysis buffer with 0.3% CHAPS; immunoblot
# [3] = target: T2, WDR24 (endogenous, mouse liver) (mouse (endogenous in liver)); experiment: co-IP; endogenous GATOR proteins; mouse liver lysates IPed with WDR24 antibody; mice injected with adenoviruses expressing GFP or Sestrin2 (4 days) or WT or Sesn2-/- mice injected with tunicamycin (24 hrs); immunoblot
# [4] = target: RagB (endogenous, HEK293) (human (endogenous in HEK293)) (UniProt Q5VZM2); experiment: co-IP; endogenous proteins; HEK293 cells transduced with GFP or Sestrin2-overexpressing lentiviruses for 48 h; IP with RagB antibody (Fig. 3C) or NPRL2 antibody (Fig. 3D); immunoblot
# [5] = target: T3, Flag-tagged Sestrin2, P58004; experiment: co-IP; HEK293 cells co-transfected with Sestrin2 (or Sestrin1, or truncated Sestrin2) and all GATOR2 components, in Fig. S3D also the GATOR1 components; Sestrin2 IPed (Flag antibody in Fig. 1C); lysis buffer with 0.3% CHAPS; immunoblot; settings: remark: other sources report otherwise
binder,measurement,setting,value
"WDR59 (transfected) (protein, UniProt Q6PJI9 1-974) MAARWSSENVVVEFRDSQATAMSVDCLGQHAVLSGRRFLYIVNLDAPFEGHRKISRQSKWDIGAVQWNPHDSFAHYFAASSNQRVDLYKWKDGSGEVGTTLQGHTRVISDLDWAVFEPDLLVTSSVDTYIYIWDIKDTRKPTVALSAVAGASQVKWNKKNANCLATSHDGDVRIWDKRKPSTAVEYLAAHLSKIHGLDWHPDSEHILATSSQDNSVKFWDYRQPRKYLNILPCQVPVWKARYTPFSNGLVTVMVPQLRRENSLLLWNVFDLNTPVHTFVGHDDVVLEFQWRKQKEGSKDYQLVTWSRDQTLRMWRVDSQMQRLCANDILDGVDEFIESISLLPEPEKTLHTEDTDHQHTASHGEEEALKEDPPRNLLEERKSDQLGLPQTLQQEFSLINVQIRNVNVEMDAADRSCTVSVHCSNHRVKMLVKFPAQYPNNAAPSFQFINPTTITSTMKAKLLKILKDTALQKVKRGQSCLEPCLRQLVSCLESFVNQEDSASSNPFALPNSVTPPLPTFARVTTAYGSYQDANIPFPRTSGARFCGAGYLVYFTRPMTMHRAVSPTEPTPRSLSALSAYHTGLIAPMKIRTEAPGNLRLYSGSPTRSEKEQVSISSFYYKERKSRRWKSKREGSDSGNRQIKAAGKVIIQDIACLLPVHKSLGELYILNVNDIQETCQKNAASALLVGRKDLVQVWSLATVATDLCLGPKSDPDLETPWARHPFGRQLLESLLAHYCRLRDVQTLAMLCSVFEAQSRPQGLPNPFGPFPNRSSNLVVSHSRYPSFTSSGSCSSMSDPGLNTGGWNIAGREAEHLSSPWGESSPEELRFGSLTYSDPRERERDQHDKNKRLLDPANTQQFDDFKKCYGEILYRWGLREKRAEVLKFVSCPPDPHKGIEFGVYCSHCRSEVRGTQCAICKGFTFQCAICHVAVRGSSNFCLTCGHGGHTSHMMEWFRTQEVCPTGCGCHCLLESTF",binding,Flag-tagged Sestrin2 [1],binds weakly
same,binding,Flag-tagged Sestrin2 [2],binds
"PPM1A (co-expressed) (protein, UniProt P35813 1-382) MGAFLDKPKMEKHNAQGQGNGLRYGLSSMQGWRVEMEDAHTAVIGLPSGLESWSFFAVYDGHAGSQVAKYCCEHLLDHITNNQDFKGSAGAPSVENVKNGIRTGFLEIDEHMRVMSEKKHGADRSGSTAVGVLISPQHTYFINCGDSRGLLCRNRKVHFFTQDHKPSNPLEKERIQNAGGSVMIQRVNGSLAVSRALGDFDYKCVHGKGPTEQLVSPEPEVHDIERSEEDDQFIILACDGIWDVMGNEELCDFVRSRLEVTDDLEKVCNEVVDTCLYKGSRDNMSVILICFPNAPKVSPEAVKKEAELDKYLECRVEEIIKKQGEGVPDLVHVMRTLASENIPSLPPGGELASKRNVIEAVYNRLNPYKNDDTDSTSTDDMW",binding,Flag-tagged Sestrin2 [1],binds weakly
"endogenous Sestrin2 (mouse) (protein, UniProt P58043 1-480) MIVADSECHSEIKGYLPFTRGGVAGPETREEHREGQARRGSRGPSAFIPVEEILREGAESLEQHLGLEALMSSGRVDNLAVVMGLHPDYLSSFWRLHYLLLHTDGPLASSWRHYIAIMAAARHQCSYLVGSHMTEFLQTGGDPEWLLGLHRAPEKLRKLSEVNKLLAHRPWLITKEHIQALLKTGEHSWSLAELIQALVLLTHCHSLASFVFGCGILPEGDAEGSPASQAPSPPSEQGTPPSGDPLNNSGGFEAARDVEALMERMRQLQESLLRDEGASQEEMENRFELEKSESLLVTPSADILEPSPHPDILCFVEDPAFGYEDFTRRGTQAPPTFRAQDYTWEDHGYSLIQRLYPEGGQLLDEKFQVACSLTYNTIAMHSGVDTSMLRRAIWNYIHCVFGIRYDDYDYGEVNQLLERNLKIYIKTVACYPEKTTRRMYNLFWRHFRHSEKVHVNLLLLEARMQAALLYALRAITRYMT",binding,[3],binds
"NPRL2 (endogenous, mouse liver) (protein, UniProt Q9WUE4 1-380) MGSSCRIECIFFSEFHPTLGPKITYQVPEDFISRELFDTVQVYIITKPELQNKLITVTAMEKKLIGCPVCIEHKKYSRNALLFNLGFVCDAQAKTCALEPIVKKLAGYLTTLELESSFVSNEESKQKLVPIMTILLEELNASGRCTLPIDESNTIHLKVIEQRPDPPVAQEYDVPVFTKDKEDFFSSQWDLTTQQILPYIDGFRHVQKISAEADVELNLVRIAIQNLLYYGVVTLVSILQYSNVYCPTPKVQDLVDDKSLQEACLSYVTKQGHKRASLRDVFQLYCSLSPGTTVRDLIGRHPQQLQHVDERKLIQFGLMKNLIRRLQKYPVRVSREERSHPARLYTGCHSYDEICCKTGMSYHELDERLENDPNIIICWK",binding,[3],binds
"NPRL2 (endogenous, HEK293) (protein, UniProt Q8WTW4 1-380) MGSGCRIECIFFSEFHPTLGPKITYQVPEDFISRELFDTVQVYIITKPELQNKLITVTAMEKKLIGCPVCIEHKKYSRNALLFNLGFVCDAQAKTCALEPIVKKLAGYLTTLELESSFVSMEESKQKLVPIMTILLEELNASGRCTLPIDESNTIHLKVIEQRPDPPVAQEYDVPVFTKDKEDFFNSQWDLTTQQILPYIDGFRHIQKISAEADVELNLVRIAIQNLLYYGVVTLVSILQYSNVYCPTPKVQDLVDDKSLQEACLSYVTKQGHKRASLRDVFQLYCSLSPGTTVRDLIGRHPQQLQHVDERKLIQFGLMKNLIRRLQKYPVRVTREEQSHPARLYTGCHSYDEICCKTGMSYHELDERLENDPNIIICWK",binding,[4],binds
"NPRL2 (transfected), Q8WTW4 1-380 (protein) MGSGCRIECIFFSEFHPTLGPKITYQVPEDFISRELFDTVQVYIITKPELQNKLITVTAMEKKLIGCPVCIEHKKYSRNALLFNLGFVCDAQAKTCALEPIVKKLAGYLTTLELESSFVSMEESKQKLVPIMTILLEELNASGRCTLPIDESNTIHLKVIEQRPDPPVAQEYDVPVFTKDKEDFFNSQWDLTTQQILPYIDGFRHIQKISAEADVELNLVRIAIQNLLYYGVVTLVSILQYSNVYCPTPKVQDLVDDKSLQEACLSYVTKQGHKRASLRDVFQLYCSLSPGTTVRDLIGRHPQQLQHVDERKLIQFGLMKNLIRRLQKYPVRVTREEQSHPARLYTGCHSYDEICCKTGMSYHELDERLENDPNIIICWK",binding,[5],no binding
"NPRL3 (transfected), Q12980 1-569 (protein) MRDNTSPISVILVSSGSRGNKLLFRYPFQRSQEHPASQTSKPRSRYAASNTGDHADEQDGDSRFSDVILATILATKSEMCGQKFELKIDNVRFVGHPTLLQHALGQISKTDPSPKREAPTMILFNVVFALRANADPSVINCLHNLSRRIATVLQHEERRCQYLTREAKLILALQDEVSAMADGNEGPQSPFHHILPKCKLARDLKEAYDSLCTSGVVRLHINSWLEVSFCLPHKIHYAASSLIPPEAIERSLKAIRPYHALLLLSDEKSLLGELPIDCSPALVRVIKTTSAVKNLQQLAQDADLALLQVFQLAAHLVYWGKAIIIYPLCENNVYMLSPNASVCLYSPLAEQFSHQFPSHDLPSVLAKFSLPVSLSEFRNPLAPAVQETQLIQMVVWMLQRRLLIQLHTYVCLMASPSEEEPRPREDDVPFTARVGGRSLSTPNALSFGSPTSSDDMTLTSPSMDNSSAELLPSGDSPLNQRMTENLLASLSEHERAAILSVPAAQNPEDLRMFARLLHYFRGRHHLEEIMYNENTRRSQLLMLFDKFRSVLVVTTHEDPVIAVFQALLP",binding,[5],no binding
"human Sestrin2 expressed from adenovirus (protein, UniProt P58004 1-480) MIVADSECRAELKDYLRFAPGGVGDSGPGEEQRESRARRGPRGPSAFIPVEEVLREGAESLEQHLGLEALMSSGRVDNLAVVMGLHPDYFTSFWRLHYLLLHTDGPLASSWRHYIAIMAAARHQCSYLVGSHMAEFLQTGGDPEWLLGLHRAPEKLRKLSEINKLLAHRPWLITKEHIQALLKTGEHTWSLAELIQALVLLTHCHSLSSFVFGCGILPEGDADGSPAPQAPTPPSEQSSPPSRDPLNNSGGFESARDVEALMERMQQLQESLLRDEGTSQEEMESRFELEKSESLLVTPSADILEPSPHPDMLCFVEDPTFGYEDFTRRGAQAPPTFRAQDYTWEDHGYSLIQRLYPEGGQLLDEKFQAAYSLTYNTIAMHSGVDTSVLRRAIWNYIHCVFGIRYDDYDYGEVNQLLERNLKVYIKTVACYPEKTTRRMYNLFWRHFRHSEKVHVNLLLLEARMQAALLYALRAITRYMT",binding,[3],binds
